Data reported in PMC4150788.
These are yes or no findings as the source states them, for the method shown. Binding seen in cells or lysates may run through a third protein. Some binding calls cover weakened binding; strength is not graded here. Sequences can lack the tags named with a protein.

By UniProt entry, the sequences of proteins in these tests, tags left out.
UniProt P32597: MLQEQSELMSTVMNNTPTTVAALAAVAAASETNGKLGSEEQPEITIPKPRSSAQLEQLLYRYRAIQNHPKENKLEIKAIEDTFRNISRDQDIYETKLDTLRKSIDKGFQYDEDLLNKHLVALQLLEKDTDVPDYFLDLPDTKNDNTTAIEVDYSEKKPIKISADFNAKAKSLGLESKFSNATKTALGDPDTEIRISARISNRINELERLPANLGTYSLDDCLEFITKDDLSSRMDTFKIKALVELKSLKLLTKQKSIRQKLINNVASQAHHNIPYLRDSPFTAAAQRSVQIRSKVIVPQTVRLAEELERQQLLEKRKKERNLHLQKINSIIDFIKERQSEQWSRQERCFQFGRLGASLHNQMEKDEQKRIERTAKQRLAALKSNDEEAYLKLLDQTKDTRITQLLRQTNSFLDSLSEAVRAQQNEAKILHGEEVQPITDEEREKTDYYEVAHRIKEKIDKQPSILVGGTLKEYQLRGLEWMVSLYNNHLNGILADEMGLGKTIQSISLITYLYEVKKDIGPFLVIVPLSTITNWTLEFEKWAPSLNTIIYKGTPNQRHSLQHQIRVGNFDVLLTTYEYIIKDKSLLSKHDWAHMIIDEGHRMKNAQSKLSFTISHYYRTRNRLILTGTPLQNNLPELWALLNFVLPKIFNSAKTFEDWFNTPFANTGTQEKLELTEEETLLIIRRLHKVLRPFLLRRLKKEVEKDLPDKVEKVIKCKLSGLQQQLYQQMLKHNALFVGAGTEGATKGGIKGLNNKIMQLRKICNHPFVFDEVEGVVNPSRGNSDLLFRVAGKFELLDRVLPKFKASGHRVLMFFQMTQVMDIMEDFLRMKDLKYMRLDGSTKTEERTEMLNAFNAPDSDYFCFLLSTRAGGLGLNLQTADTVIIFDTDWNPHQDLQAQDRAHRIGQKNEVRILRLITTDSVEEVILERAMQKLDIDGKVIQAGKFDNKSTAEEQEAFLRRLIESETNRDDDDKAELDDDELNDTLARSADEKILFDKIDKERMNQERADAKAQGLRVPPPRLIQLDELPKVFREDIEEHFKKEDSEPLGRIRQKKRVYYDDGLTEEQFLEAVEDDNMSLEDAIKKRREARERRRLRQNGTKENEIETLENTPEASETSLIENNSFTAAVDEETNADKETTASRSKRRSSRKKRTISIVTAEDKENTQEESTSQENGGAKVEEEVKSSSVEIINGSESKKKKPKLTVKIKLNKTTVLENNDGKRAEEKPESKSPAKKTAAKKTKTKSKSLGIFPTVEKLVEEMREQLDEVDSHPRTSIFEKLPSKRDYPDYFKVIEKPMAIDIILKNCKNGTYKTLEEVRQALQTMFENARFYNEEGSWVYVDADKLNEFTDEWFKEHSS

Biological target: Sth1-Myc (S. cerevisiae) (UniProt P32597)
Test: co-IP; Sth1-Myc precipitated with 9E10 anti-Myc antibody on Dynabeads from whole-cell extracts of bud27Δ cells expressing Bud27-GFP; western blot with anti-Myc and anti-GFP

binding: binds
B1: Bud27-GFP (protein, UniProt P43573 1-796)
chain: MDLLAASVESTLKNLQDKRNFLSEQREHYIDIRSRLVRFINDNDDGEEEGEGQGMVFGDIIISTSKIYLSLGYEYYVEKTKEEAITFVDDKLKLMEDAIEQFNLKIEEAKKTLDNLNHMEDGNGIEEDEANNDEDFLPSMEIREELDDEGNVISSSVTPTTKQPSQSNSKKEQTPAVGPKEKGLAKEKKSKSFEENLKGKLLKRNDEVKKKVQPSKVDTENVYTFADLVQQMDQQDELEDGYIETDEINYDYDAFENSNFKVNDNYEEDDEDEDEEEYLNHSIIPGFEAQSSFLQQIQRLRAQKQSQDHEREEGDVNKSLKPILKKSSFAENSDKKQKKKQVGFASSLEIHEVENLKEENKRQMQSFAVPMYETQESTGIANKMTSDEFDGDLFAKMLGVQEADEVHEKYKEELINQERLEGEASRSNRRTRVSRFRKDRASKKENTLSTFKQETTRSVENEVVEKEPVVGDIIEKEPVVGDVIEKEPVVGDVIEKEPAVTDIVEREPAVNDIVERKPVVGDIIEKEPTINDIVEKEPEINSKSEFETPFKKKKLKSLQKPRSSKSMKKKFDPKILENISDDDYDDDDDGNKKLLSNKSKNNTDEQDKFPSKIQEVSRSMAKTGATVGSEPVRITNVDYHALGGNLDDMVKAYSLGLYDDDLEEDPGTIVEKLEDFKEYNKQVELLRDEIRDFQLENKPVTMEEEENDGNVMNDIIEHEFPESYTNDEDEVALHPGRLQEEVAIEYRRLKEATASKWQSSSPAAHTEGELEPIDKFGNPVKTSRFRSQRLHMDSKP
